# According to patent US20100248978:
# Chains of the proteins cited; added tags and fusions are not shown. Lines headed by an entry give the natural chain unless they say otherwise; changes in a name come on top.
# UniProt P93836: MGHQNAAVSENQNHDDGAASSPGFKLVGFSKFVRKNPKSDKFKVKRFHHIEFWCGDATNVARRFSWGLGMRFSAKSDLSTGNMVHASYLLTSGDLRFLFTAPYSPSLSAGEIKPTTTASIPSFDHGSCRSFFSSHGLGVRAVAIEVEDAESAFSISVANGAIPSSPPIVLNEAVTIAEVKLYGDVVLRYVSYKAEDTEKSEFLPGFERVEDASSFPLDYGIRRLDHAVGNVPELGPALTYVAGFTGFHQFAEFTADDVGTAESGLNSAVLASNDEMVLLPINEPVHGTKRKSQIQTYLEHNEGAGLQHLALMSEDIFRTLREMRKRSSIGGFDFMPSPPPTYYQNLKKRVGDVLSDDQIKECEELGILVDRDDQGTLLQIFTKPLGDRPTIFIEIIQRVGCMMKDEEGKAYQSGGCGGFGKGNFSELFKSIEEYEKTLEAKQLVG
# The exact form of at least one protein or probe is not confirmed. Where cells or extracts were used, other partners may take part.
# Target: p-hydroxyphenylpyruvate dioxygenase (HPPD), endogenous (Arabidopsis thaliana) (UniProt P93836)
# Assay: pull-down
# Settings: endogenous HPPD from extract, identified by mass spectrometry (second hit after RubisCo); protein in an extract; label: 5' biotin (biotinylated ApG starter); variant of S116D-C8
sequence,measurement,value
GGGAGAGGAGGGAGAUAGAUAUCAAUAAAGUCGGUGACACCACGCAUCCAAAUACCGGUACGCGGAACUAAUAGUUUGUCCUCACGGUGGAUGG [S116D-C8 biotinylated],binding result,binds
